{"source": "PubChem BioAssay AID1224830 (NIAID, 2016)", "screen": "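Regulators of TLR4 signalling towards TNF-alpha in macrophage-like cells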 (primary screen)", "cell system": "human THP-1 monocytic leukaemia cells, TNF dual-luciferase reporter clone, PMA-differentiated to macrophage-like cells", "reagent": "siRNA pool against human genes, 50 nM", "time to read-out": "LPS for 4 h, given about 3 days after siRNA transfection", "challenge": "bacterial LPS (TLR4 ligand), 10 ng/ml", "measurement": "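Ratio of firefly to renilla light, scaled to the plate median and expressed as a robust z-score per replicate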", "reading the numbers": "TNF reporter robust z-score: higher = stronger TNF reporter response to LPS", "active means": "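a well is active when its z-score exceeds 2.8 or falls below -1.5; control wells carry no call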", "note": "This is one part, drawn at random, of about 18,000 reagents. About 2,900 of all reagents (16%) were called active. 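Calls are made per well; low scores hint the gene aids the LPS response, high scores that it dampens it.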 Repeated entries: four replicate wells of each siRNA pool."}
{"target gene": "HS2ST1", "TNF reporter robust z-score": 0.31, "call": "inactive"}
{"target gene": "HS2ST1", "TNF reporter robust z-score": 1.32, "call": "inactive"}
{"target gene": "HS2ST1", "TNF reporter robust z-score": 0.83, "call": "inactive"}
{"target gene": "HS2ST1", "TNF reporter robust z-score": -0.32, "call": "inactive"}
{"target gene": "DTNA", "TNF reporter robust z-score": -1.12, "call": "inactive"}
{"target gene": "DTNA", "TNF reporter robust z-score": -1.09, "call": "inactive"}
{"target gene": "DTNA", "TNF reporter robust z-score": -1.34, "call": "inactive"}
{"target gene": "DTNA", "TNF reporter robust z-score": -0.94, "call": "inactive"}

Continued (2 carried over from the part before).
{"target gene": "DTNA", "TNF reporter robust z-score": -1.34, "call": "inactive"}
{"target gene": "DTNA", "TNF reporter robust z-score": -0.94, "call": "inactive"}
{"target gene": "CCDC162P", "TNF reporter robust z-score": 0.17, "call": "inactive"}
{"target gene": "CCDC162P", "TNF reporter robust z-score": 1.16, "call": "inactive"}
{"target gene": "CCDC162P", "TNF reporter robust z-score": 0.89, "call": "inactive"}
{"target gene": "CCDC162P", "TNF reporter robust z-score": 1.52, "call": "inactive"}
{"target gene": "TPRKB", "TNF reporter robust z-score": -2.15, "call": "active"}
{"target gene": "TPRKB", "TNF reporter robust z-score": -0.93, "call": "inactive"}
{"target gene": "TPRKB", "TNF reporter robust z-score": -0.76, "call": "inactive"}
{"target gene": "TPRKB", "TNF reporter robust z-score": -0.82, "call": "inactive"}
{"target gene": "PABPC4", "TNF reporter robust z-score": -1.09, "call": "inactive"}
{"target gene": "PABPC4", "TNF reporter robust z-score": -0.9, "call": "inactive"}
{"target gene": "PABPC4", "TNF reporter robust z-score": -1.35, "call": "inactive"}
{"target gene": "PABPC4", "TNF reporter robust z-score": -0.57, "call": "inactive"}
